Measured values taken from PubChem BioAssay AID328 (DTP/NCI, 2004).
The list is a part of this screen's results and no random one: it is rich in T/C values a quarter to a half above the control, in often repeated tests (any T/C) and in doses without a T/C. Further doses and runs are listed elsewhere. T/C: endpoint of the treated group in % of that of the vehicle group. Some entries give survivors of the animals treated and no T/C: the source holds a T/C of zero for them, seemingly a mark for toxic or unscored doses. Some survivor counts are full or nearly so, which does not show that the dose was tolerated: survival well below the control is almost never listed, so the zero probably covers shortened survival too. Counts of survivors are from the toxicity check (mostly the fifth day) where no day follows; animals may have died later. Schedule codes are those of the source, taken here to give the interval after Q, in days (D) or hours (H), and the number of doses after X. Where survival is the endpoint, the PubChem record calls one and a half times the control and up active, and a quarter to a half above the control has no call in these data; cut-offs in other NCI protocols can differ. Some T/C values are followed by the survivors on the day toxicity was checked, most often the fifth; without a count, all were alive then. Some entries were tested several times; the values are given in rising order. Marks such as (2×) stand for listed records that agree.

Tested on: BDF1 mice, P388 leukemia ip, median survival T/C
Experiment: NCI In Vivo Anticancer Drug Screen. Data for tumor model P388 Leukemia (intraperitoneal) in B6D2F1 (BDF1) mice
Conditions: T/C endpoint: median survival time, higher T/C = longer survival
Method in brief: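 Mice carrying the transplantable tumour receive compound or vehicle. Survival is followed in each arm, and the treated measure is divided by the vehicle measure.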

SMILES: CCCCCCCCCCCCCCCC(=O)OCC1OC(n2ccc(N)nc2=O)C(O)C1O (configuration not stated)
- T/C (dose: 0.75 mg/kg/injection, schedule: Q04DX003 (ip), vehicle: saline with Tween-80): 136 % of control
- T/C (dose: 1.32 mg/kg/injection, schedule: Q04DX003 (ip), vehicle: saline with Tween-80): 127 % of control
- T/C (dose: 6.25 mg/kg/injection, schedule: Q01DX005 (ip), vehicle: Klucel (hydroxypropylcellulose) (HPC), evaluated on day 30): 121, 125 [5 of 6 alive], 134, 144, 158 (3×), 161, 169 (2×), 170, 173, 175, 178, 186, 188, 190, 192, 196, 200, 202, 203, 204, 207, 211, 213, 218, 219, 225, 235, 261 % of control
- T/C (dose: 6.25 mg/kg/injection, schedule: Q01DX005 (ip), vehicle: Klucel (hydroxypropylcellulose) (HPC), evaluated on day 35): 155 and 167 % of control
- T/C (dose: 6.25 mg/kg/injection, schedule: Q01DX009 (ip), vehicle: Klucel (hydroxypropylcellulose) (HPC), evaluated on day 30): 128, 149, 156, 169, 186, 189, 194, 197 (2×), 199, 200, 201, 204, 205, 206, 207 (3×), 211, 217 (2×), 219, 220, 223, 229 (2×), 235 (2×), 238, 247, 250 (2×), 255, 258, 263 % of control
- T/C (dose: 6.25 mg/kg/injection, schedule: Q01DX009 (ip), vehicle: Klucel (hydroxypropylcellulose) (HPC), evaluated on day 35): 180 % of control
- T/C (dose: 12.5 mg/kg/injection, schedule: Q01DX005 (ip), vehicle: Klucel (hydroxypropylcellulose) (HPC), evaluated on day 30): 141, 146, 158, 171, 177 [2 of 3 alive], 183, 193, 195 [1 of 1 alive], 201 (2×), 204, 206, 207, 210, 223, 224, 227 (2×), 228, 231 (2×), 235, 237 (2×), 239, 241, 246, 255, 262, 266, 275 % of control
- T/C (dose: 12.5 mg/kg/injection, schedule: Q01DX005 (ip), vehicle: Klucel (hydroxypropylcellulose) (HPC), evaluated on day 35): 189 and 209 % of control
- T/C (dose: 12.5 mg/kg/injection, schedule: Q01DX009 (ip), vehicle: Klucel (hydroxypropylcellulose) (HPC), evaluated on day 30): 171, 178, 181, 193, 197 (2×), 210, 216, 219, 221, 223, 230, 233, 235, 236, 237, 245 (2×), 247, 250, 252, 256, 260 (2×), 263, 266, 267 (2×), 271, 275, 277, 280, 287, 291, 292 % of control
- T/C (dose: 12.5 mg/kg/injection, schedule: Q01DX009 (ip), vehicle: Klucel (hydroxypropylcellulose) (HPC), evaluated on day 35): 247 % of control [5 of 6 alive]
- T/C (dose: 18.75 mg/kg/injection, schedule: Q04DX002 (ip), vehicle: Klucel (hydroxypropylcellulose) (HPC), evaluated on day 30): 126, 150, 157 [5 of 6 alive], 166 (2×), 167, 170, 176, 180, 182, 186, 190, 194, 196, 199, 204, 211 (2×), 216, 219, 224, 225, 226, 228, 236, 241, 247, 267 % of control
- T/C (dose: 18.75 mg/kg/injection, schedule: Q04DX002 (ip), vehicle: Klucel (hydroxypropylcellulose) (HPC), evaluated on day 35): 164 % of control
- survivor count (dose: 18.75 mg/kg/injection, schedule: Q04DX002 (ip), vehicle: Klucel (hydroxypropylcellulose) (HPC)): 3 of 3
- T/C (dose: 18.75 mg/kg/injection, schedule: Q04DX003 (ip), vehicle: Klucel (hydroxypropylcellulose) (HPC), evaluated on day 30): 145, 160, 172, 175, 192, 193, 198, 200, 204, 207, 211, 225, 228, 229, 230, 238 (2×), 239, 241, 245, 251, 252, 254, 255, 256, 260, 265, 266, 268, 271, 280 % of control
- T/C (dose: 18.75 mg/kg/injection, schedule: Q04DX003 (ip), vehicle: Klucel (hydroxypropylcellulose) (HPC), evaluated on day 35): 245 % of control
- T/C (dose: 25.0 mg/kg/injection, schedule: Q01DX005 (ip), vehicle: Klucel (hydroxypropylcellulose) (HPC), evaluated on day 30): 109, 136, 140, 143, 165, 200, 202, 217, 219, 225, 228 [5 of 6 alive], 235, 236, 240 (2×), 243, 245, 250 (2×), 252, 254, 260 (2×), 264 [5 of 6 alive], 266, 271 [2 of 3 alive], 275 (2×), 279, 290 [5 of 6 alive], 294 % of control
- T/C (dose: 25.0 mg/kg/injection, schedule: Q01DX005 (ip), vehicle: Klucel (hydroxypropylcellulose) (HPC), evaluated on day 35): 222 [2 of 3 alive] and 256 % of control
- T/C (dose: 25.0 mg/kg/injection, schedule: Q01DX009 (ip), vehicle: Klucel (hydroxypropylcellulose) (HPC), evaluated on day 30): 171 [2 of 3 alive], 199, 210, 228, 245, 247 (2×), 251, 256 (2×), 258, 260, 262 (2×), 263 (3×), 267 (2×), 274, 275 (2×), 275 [5 of 6 alive], 277, 280, 282, 283, 285 (2×), 291 (2×), 293, 300, 306 % of control
- T/C (dose: 25.0 mg/kg/injection, schedule: Q01DX009 (ip), vehicle: Klucel (hydroxypropylcellulose) (HPC), evaluated on day 35): 320 % of control
- survivor count (dose: 25.0 mg/kg/injection, schedule: Q01DX009 (ip), vehicle: Klucel (hydroxypropylcellulose) (HPC)): 1 of 3
- T/C (dose: 31.25 mg/kg/injection, schedule: Q01DX001 (ip), vehicle: Klucel (hydroxypropylcellulose) (HPC)): 165, 180, 204, 208, 219, 234, 236 % of control
- T/C (dose: 31.75 mg/kg/injection, schedule: Q01DX001 (ip), vehicle: Klucel (hydroxypropylcellulose) (HPC)): 100, 100 [2 of 3 alive], 105, 106, 111, 158, 163 (2×), 168, 174, 176 (2×), 181, 196, 211, 215, 216, 223, 225, 226, 250, 261 % of control
- T/C (dose: 33.0 mg/kg/injection, schedule: Q01DX009 (ip), vehicle: saline with Tween-80): 131 % of control
- T/C (dose: 37.5 mg/kg/injection, schedule: Q04DX002 (ip), vehicle: Klucel (hydroxypropylcellulose) (HPC), evaluated on day 30): 170, 175, 193, 194, 195, 196, 202, 202 [2 of 3 alive], 203, 204, 205, 208, 219, 220, 230, 236, 239, 240, 241, 245, 253, 256, 258 (2×), 265 (2×), 269, 286 % of control
- T/C (dose: 37.5 mg/kg/injection, schedule: Q04DX002 (ip), vehicle: Klucel (hydroxypropylcellulose) (HPC), evaluated on day 35): 213 % of control
- survivor count (dose: 37.5 mg/kg/injection, schedule: Q04DX002 (ip), vehicle: Klucel (hydroxypropylcellulose) (HPC)): 3 of 3
- T/C (dose: 37.5 mg/kg/injection, schedule: Q04DX003 (ip), vehicle: Klucel (hydroxypropylcellulose) (HPC), evaluated on day 30): 170, 181, 182, 189, 193, 212, 214 (2×), 216, 225, 235, 237, 243, 245, 253, 255, 256 (2×), 260 (2×), 263, 265, 267, 270, 272, 274, 275, 277, 285 (2×), 297 % of control
- T/C (dose: 37.5 mg/kg/injection, schedule: Q04DX003 (ip), vehicle: Klucel (hydroxypropylcellulose) (HPC), evaluated on day 35): 282 % of control
- T/C (dose: 40.0 mg/kg/injection, schedule: Q04DX003 (ip), vehicle: saline with Tween-80, evaluated on day 5): 198, 225, 306 % of control
- T/C (dose: 40.0 mg/kg/injection, schedule: Q04DX003 (ip), vehicle: saline with Tween-80, evaluated on day 60): 198 and 306 % of control
- T/C (dose: 50.0 mg/kg/injection, schedule: Q01DX005 (ip), vehicle: Klucel (hydroxypropylcellulose) (HPC), evaluated on day 30): 87, 94, 125, 126, 132, 140, 161, 169, 182, 225, 230, 235, 236, 243, 244, 250, 251, 258, 264, 270, 272, 274, 275, 277, 280, 282, 283, 285, 296 % of control
- T/C (dose: 50.0 mg/kg/injection, schedule: Q01DX005 (ip), vehicle: Klucel (hydroxypropylcellulose) (HPC), evaluated on day 35): 247 and 294 % of control
